This is one part of the list. Shown are side measurements of this screen, not its main read-out; they come without a call. Most of these compounds were active or inconclusive in the main read-out, so they are no random draw. Words in brackets tell the shape of the fitted curve; partial curves, single points and poor fits give uncertain potencies.
Experiment: qHTS Assay to Find Inhibitors of Chronic Active B-Cell Receptor Signaling
Details: ABC-DLBCL IkBa-CBG/CBR reporter, luminescence ratio (green luciferase fused to IkBa over red control in TMD8 lymphoma cells), 4 h
Method in brief: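 Concentration-response series (up to 46 uM) were applied to TMD8 dual-reporter cells for 4 h at 37C with doxycycline. Green/red ratio, after filter-overlap correction, defined %Activity; red signal alone was normalised to basal cells and zero luminescence.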

[1] = measured here: CBR red luminescence, cell number
[2] = measured here: IkBa-CBG green luminescence

Row | Compound | AC50 [1] | AC50 [2]
1 | COc1ccc(NC(=O)/C(=C\c2ccc(F)cc2)NC(=O)c2ccco2)cc1 | 3.55 µM [falling, partial curve, poor fit] | 
2 | COc1ccccc1-c1cc(C(F)(F)F)nc(N2CCCCC2)n1 | 23.1 µM [rising, single point] | 
3 | COc1cc(C(C)=O)ccc1OCC(O)CN1CCN(S(=O)(=O)c2ccccc2)CC1 (stereo unspecified) | 0.0206 µM [rising, full curve, poor fit] | 
4 | CC1=NC(C(F)(F)F)(C(F)(F)F)C2=C(CC(C)(C)CC2=O)N1Cc1ccco1 | 13 µM [falling, partial curve, poor fit] | 
5 | CNc1ccc(C(=O)OCC(=O)Nc2ccnn2C(C)C)cc1[N+](=O)[O-] | 9.2 µM [rising, partial curve, poor fit] | 
6 | Cc1ccc2nc(-c3ccc(NC(=O)CSCC(=O)O)cc3)sc2c1 | 15.8 µM [falling, single point] | 
7 | O=c1[nH]n(Cc2ccccc2)c(=O)c2ccccc12 | 2 µM [rising, full curve, poor fit] | 
8 | Cc1ccc(N2C(=O)CSCC2=O)cc1 | 7.31 µM [rising, partial curve, poor fit] | 
9 | Cc1cc(C)n(-c2ccc(C(=O)Nc3ccccn3)cc2)n1 | 12.6 µM [falling, partial curve, poor fit] | 
10 | Cc1nnc(NC(=O)c2ccc3nccnc3c2)s1 | 18.4 µM [falling, partial curve] | 
11 | CCOc1ccc(CC(=NCCc2ccccc2)C2=C(O)CC(C)(C)CC2=O)cc1OCC | 8.2 µM [rising, partial curve] | 
12 | CC(=O)Nc1ccc(S(=O)(=O)N(C)c2ccc(OCCOc3ccccc3F)cc2)cc1 | 8.2 µM [rising, partial curve] | 
13 | Cc1cccc(NS(=O)(=O)c2ccc(C)c(C(=O)NCC(c3ccccc3)N(C)C)c2)c1 (stereo unspecified) | 25.9 µM [falling, partial curve, poor fit] | 
14 | Cc1ccccc1C(=O)N1CCN(c2ccc(NC(=S)NC(=O)c3cccs3)cc2)CC1 | 1.26 µM [falling, full curve, poor fit] | 
15 | Nc1ncn([C@@H]2O[C@H](CO)[C@@H](O)[C@H]2O)c(=O)n1 | 6.51 µM [rising, full curve] | 
16 | O=c1oc2ccccc2cc1-c1nc(-c2ccccc2)no1 | 2.82 µM [falling, partial curve] | 
17 | N#CC(c1ccccc1)c1ccc(C(=O)c2ccc(F)cc2)cc1 (stereo unspecified) | 14.6 µM [rising, single point] | 
18 | CC[n+]1c(/C=C2\Sc3ccccc3N2C)ccc2cccc(C)c21 | 17.8 µM [falling, partial curve, poor fit] | 35.5 µM [rising, single point]
19 | CN(C)CCCNc1ccc(-c2n[nH]c(=O)c3ccccc23)cc1[N+](=O)[O-] | 14.1 µM [falling, single point] | 
20 | CCC(=O)Nc1ccc(Br)c(Cl)c1 | 20.6 µM [rising, single point] | 
21 | COc1ccc(C(C(=O)NC2CCCC2)N(C(=O)c2ccoc2C)c2ccc(C)cc2)cc1 (stereo unspecified) | 18.4 µM [falling, single point] | 

Row | Compound | AC50 [1] | AC50 [2]
22 | CCC(Sc1ncnc2sc(C)c(C)c12)C(=O)OC (stereo unspecified) | 7.31 µM [rising, partial curve, poor fit] | 
23 | CSc1cccc(NC(=O)CSc2ncccc2C(=O)Oc2cccc([N+](=O)[O-])c2)c1 | 9.2 µM [falling, single point] | 32.6 µM [rising, partial curve, poor fit]
24 | O=C(CNC(=O)c1ccco1)NCC(=O)OCc1ccc(C(=O)Oc2ccc(Cl)cc2)cc1 | 16.4 µM [rising, partial curve, poor fit] | 
25 | O=C(NCCc1ccccc1)c1ccc(Cl)c([N+](=O)[O-])c1 | 35.5 µM [falling, single point] | 
26 | CC1(c2ccc(OC(F)F)cc2)NC(=O)N(CC(=O)Nc2cccc(S(N)(=O)=O)c2)C1=O (stereo unspecified) | 35.5 µM [rising, single point] | 
27 | Cc1ccccc1NC(=O)C1CC(=O)N(c2ccc3c4c(cccc24)CC3)C1 (stereo unspecified) | 14.1 µM [falling, partial curve, poor fit] | 
28 | O=C(NNC(=S)NC(=O)c1ccccc1)c1ccc([N+](=O)[O-])cc1 | 3.55 µM [falling, full curve] | 
29 | Cn1c(=O)oc2cc(S(=O)(=O)N3CCC(C(=O)NCCc4ccccc4)CC3)ccc21 | 3.16 µM [falling, single point] | 
30 | CCC(C)N(C(=O)COc1ccccc1C(=O)NCc1ccccc1)C1CCS(=O)(=O)C1 (stereo unspecified) | 35.5 µM [falling, single point] | 
31 | CC(C)(C)N(Cc1ccccc1)C(=O)c1ccc(Br)o1 | 8.91 µM [rising, partial curve] | 
32 | Cc1cc(NS(=O)(=O)c2ccc(Nc3nc(-c4ccc(C)c(C)c4)cs3)cc2)no1 | 23.1 µM [falling, single point] | 
33 | Cc1cc(NC(=O)c2cc(-c3ccc(C)s3)nc3ccccc23)no1 | 0.291 µM [falling, full curve, poor fit] | 
34 | COc1ccccc1/C=N/Nc1cc(C)nc(N2CCOCC2)n1 | 17.8 µM [falling, partial curve, poor fit] | 
35 | O=C(NCCc1ccccc1)Nc1ccc(Cl)cc1 | 0.231 µM [rising, full curve, poor fit] | 
36 | CSc1nc(N)nc(SCC(=O)OC(C)C)c1C#N | 1 µM [rising, partial curve, poor fit] | 
37 | COc1cc(/C=N/NC(=O)c2nnn(-c3nonc3N)c2C(C)C)ccc1OCc1ccc(F)cc1 |  | 14.1 µM [rising, partial curve, poor fit]
38 | O=C(CNC(=O)c1ccc(C(F)(F)F)cc1)NC1CC1 | 0.00461 µM [rising, full curve, poor fit] | 
39 | Cn1c(=O)[nH]c(NC2CCCCC2)c([N+](=O)[O-])c1=O | 1.3 µM [rising, full curve] | 
40 | O=C(Nc1ccccc1C(=O)NCC1CCCO1)c1ccccc1 (stereo unspecified) | 15.8 µM [falling, single point] | 
41 | O=c1c(Cl)c(Cl)cnn1Cc1nnc(-c2ccccc2Br)o1 | 8.91 µM [falling, partial curve] | 11.2 µM [rising, partial curve, poor fit]
42 | Cc1cc(Cl)ccc1N(CC(=O)N=Nc1c(O)[nH]c2ccccc12)S(C)(=O)=O | 23.1 µM [falling, single point] | 

Exported with tabs: entries from further up.
Row	Compound	AC50 [1]	AC50 [2]
38	O=C(CNC(=O)c1ccc(C(F)(F)F)cc1)NC1CC1	0.00461 µM [rising, full curve, poor fit]	
39	Cn1c(=O)[nH]c(NC2CCCCC2)c([N+](=O)[O-])c1=O	1.3 µM [rising, full curve]	
40	O=C(Nc1ccccc1C(=O)NCC1CCCO1)c1ccccc1 (stereo unspecified)	15.8 µM [falling, single point]	
41	O=c1c(Cl)c(Cl)cnn1Cc1nnc(-c2ccccc2Br)o1	8.91 µM [falling, partial curve]	11.2 µM [rising, partial curve, poor fit]

Next part.

Row | Compound | AC50 [1] | AC50 [2]
43 | Cc1c(C(=O)N2CCCC2)sc(NC(=O)c2ccccc2)c1C#N | 20.6 µM [falling, single point] | 20.6 µM [rising, partial curve, poor fit]
44 | Cn1c(NNC(=O)c2c(F)cccc2F)cc(=O)n(C)c1=O | 0.562 µM [falling, partial curve, poor fit] | 
45 | COc1ccc(-c2nn(-c3ccccc3)cc2/C=C/C(=O)N2CCOCC2)cc1OC | 11.2 µM [falling, single point] | 
46 | Clc1ccc(COc2ccccc2-c2ccnc3ncnn23)cc1 | 2.51 µM [rising, partial curve] | 
47 | COc1ccccc1NS(=O)(=O)c1cc(NC(=O)c2cccs2)ccc1N1CCCC1 | 9.2 µM [rising, partial curve] | 
48 | COc1cc(NC(=O)c2cccnc2Sc2ccc(C)c(C)c2)cc(OC)c1OC | 1.84 µM [rising, partial curve, poor fit] | 
49 | O=S(=O)(c1ccc2ccccc2c1)N1C=CC(C(F)(F)F)=NCC1 | 0.651 µM [falling, partial curve, poor fit] | 
50 | O=C(O)Cc1sc(Nc2ccccc2)nc1-c1cccs1 | 14.1 µM [falling, single point] | 
51 | COC(=O)C1C(O)=C(C(C)=Nc2cccc3ccccc23)C(=O)CC1(C)C (stereo unspecified) | 1.26 µM [rising, partial curve, poor fit] | 
52 | Cc1c(C(=O)N2CCCc3ccccc32)sc2nc(-c3ccccc3)cn12 | 6.31 µM [falling, single point] | 
53 | CCc1ccc(OCC(=O)NC(=S)Nc2ccc(C(C)=O)cc2)c(Br)c1 | 0.58 µM [rising, full curve, poor fit] | 
54 | O=C(CSc1ncc(-c2ccccc2)[nH]1)Nc1ccccc1F | 2 µM [rising, full curve, poor fit] | 
55 | COc1ccc(/C=C/C(=O)c2c(O)c(OC)c3occc3c2OC)cc1 |  | 15.8 µM [falling, single point]
56 | COc1cc(NC(=O)c2ccco2)c(OC)cc1NC(=O)Nc1ccccc1Cl | 18.4 µM [rising, single point] | 
57 | Cc1cc(C(=O)COC(=O)c2ccc(N)c([N+](=O)[O-])c2)c(C)n1-c1ccc2c(c1)OCO2 | 5.17 µM [falling, partial curve] | 
58 | O=C(/C=C/c1ccco1)N1CCCC(c2ccccc2)C1 (stereo unspecified) | 3.98 µM [rising, full curve, poor fit] | 
59 | S=c1[nH]nc(COc2ccc3ccccc3c2)o1 | 5.17 µM [falling, full curve, poor fit] | 
60 | COCCn1cc(C(=O)c2ccccc2OCC(=O)Nc2cc(C)on2)cc(C#N)c1=O | 4.11 µM [falling, single point] | 5.17 µM [rising, partial curve, poor fit]
61 | O=C(Nc1ccc(-c2nnn(CC(=O)N3CCN(C(=O)c4ccco4)CC3)n2)cc1)c1ccccc1F | 14.1 µM [falling, single point] | 
